# Results from patent US11008291B2, “Methods of forming carbene-functionalized composite materials” (Queen's University at Kingston, priority 2015, dated 2021).
# Amino acid sequences for entries named in this document (tags omitted). Residues count along the entry.
# UniProt P02768, 25-609: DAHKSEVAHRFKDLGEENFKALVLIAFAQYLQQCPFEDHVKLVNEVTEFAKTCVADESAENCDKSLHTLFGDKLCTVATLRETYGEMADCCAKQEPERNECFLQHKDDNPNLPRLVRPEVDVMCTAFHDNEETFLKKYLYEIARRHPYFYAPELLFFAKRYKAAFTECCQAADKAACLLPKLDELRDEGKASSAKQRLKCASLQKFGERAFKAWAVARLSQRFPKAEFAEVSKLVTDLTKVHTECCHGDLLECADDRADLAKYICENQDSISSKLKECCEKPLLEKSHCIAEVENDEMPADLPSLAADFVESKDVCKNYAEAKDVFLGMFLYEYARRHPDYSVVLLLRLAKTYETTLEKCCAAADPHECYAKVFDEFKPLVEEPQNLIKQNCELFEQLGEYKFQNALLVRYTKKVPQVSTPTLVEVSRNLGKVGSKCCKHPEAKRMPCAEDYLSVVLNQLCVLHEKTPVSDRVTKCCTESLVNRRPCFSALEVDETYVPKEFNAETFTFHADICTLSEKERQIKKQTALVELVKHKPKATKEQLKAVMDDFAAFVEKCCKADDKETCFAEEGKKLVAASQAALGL
# At least one structure is not confirmed: it was looked up by name or label, or the drawing left a doubt.
# Target: HSA (Homo sapiens, UniProt P02768)
# Experiment: Opioid/protein interactions on HSA-immobilized NHC-CM5 chip (SPR)
# Assay type: binding
# Conditions: 50, 100, 200, 400 μM; FIG. 21A-D
# Method: NHC-CM5 chip was used for this study. HSA was immobilized using amine-coupling chemistry. […] Three 30s-injections of 50 mM NaOH was used to wash off non-covalently bound HSA and to further stabilize the baseline. […] Unmodified dextran surface was used as a reference surface.
# Opioids were first serially diluted into running buffer to final concentrations of 50, 100, 200, 400 μM. To test data quality and further equilibrate the surfaces, 4 warm-up buffer cycles were performed at a flow rate of 30 μl/min. Opioids samples were injected over the reference and HSA surfaces at a flow rate of 30 μl/min. Replicate injections of each drug concentration were analyzed. Each cycle consisted of a 1-min waiting period for monitoring of the baseline stability. Then the drug/HSA complex was allowed to associate and dissociate for 60 s and 30 s, respectively. […] Data obtained in the reference flow cell was subtracted from that obtained in the HSA immobilized flow cell.
structure (smiles),measurement,value
COC(=O)[C@H]1[C@@H](OC(=O)c2ccccc2)C[C@@H]2CC[C@H]1N2C [cocaine],Detection of opioid on HSA surface of NHC-CM5 chip,successfully detected
